Like-named read-outs stand apart in the source and are kept apart here. Results are given in words; binding and its absence hold for the method and conditions named. Binding seen in cells or lysates may run through a third protein. For some assays here: A result given as binding can be weak or reduced; the word gives no strength. For some assays here: Sequences can lack the tags named with a protein.

Protein sequences, listed by entry. Tags and fused reporters are not part of them. Lines headed by an entry give the natural chain unless they say otherwise; changes in a name come on top.
UniProt Q96L96: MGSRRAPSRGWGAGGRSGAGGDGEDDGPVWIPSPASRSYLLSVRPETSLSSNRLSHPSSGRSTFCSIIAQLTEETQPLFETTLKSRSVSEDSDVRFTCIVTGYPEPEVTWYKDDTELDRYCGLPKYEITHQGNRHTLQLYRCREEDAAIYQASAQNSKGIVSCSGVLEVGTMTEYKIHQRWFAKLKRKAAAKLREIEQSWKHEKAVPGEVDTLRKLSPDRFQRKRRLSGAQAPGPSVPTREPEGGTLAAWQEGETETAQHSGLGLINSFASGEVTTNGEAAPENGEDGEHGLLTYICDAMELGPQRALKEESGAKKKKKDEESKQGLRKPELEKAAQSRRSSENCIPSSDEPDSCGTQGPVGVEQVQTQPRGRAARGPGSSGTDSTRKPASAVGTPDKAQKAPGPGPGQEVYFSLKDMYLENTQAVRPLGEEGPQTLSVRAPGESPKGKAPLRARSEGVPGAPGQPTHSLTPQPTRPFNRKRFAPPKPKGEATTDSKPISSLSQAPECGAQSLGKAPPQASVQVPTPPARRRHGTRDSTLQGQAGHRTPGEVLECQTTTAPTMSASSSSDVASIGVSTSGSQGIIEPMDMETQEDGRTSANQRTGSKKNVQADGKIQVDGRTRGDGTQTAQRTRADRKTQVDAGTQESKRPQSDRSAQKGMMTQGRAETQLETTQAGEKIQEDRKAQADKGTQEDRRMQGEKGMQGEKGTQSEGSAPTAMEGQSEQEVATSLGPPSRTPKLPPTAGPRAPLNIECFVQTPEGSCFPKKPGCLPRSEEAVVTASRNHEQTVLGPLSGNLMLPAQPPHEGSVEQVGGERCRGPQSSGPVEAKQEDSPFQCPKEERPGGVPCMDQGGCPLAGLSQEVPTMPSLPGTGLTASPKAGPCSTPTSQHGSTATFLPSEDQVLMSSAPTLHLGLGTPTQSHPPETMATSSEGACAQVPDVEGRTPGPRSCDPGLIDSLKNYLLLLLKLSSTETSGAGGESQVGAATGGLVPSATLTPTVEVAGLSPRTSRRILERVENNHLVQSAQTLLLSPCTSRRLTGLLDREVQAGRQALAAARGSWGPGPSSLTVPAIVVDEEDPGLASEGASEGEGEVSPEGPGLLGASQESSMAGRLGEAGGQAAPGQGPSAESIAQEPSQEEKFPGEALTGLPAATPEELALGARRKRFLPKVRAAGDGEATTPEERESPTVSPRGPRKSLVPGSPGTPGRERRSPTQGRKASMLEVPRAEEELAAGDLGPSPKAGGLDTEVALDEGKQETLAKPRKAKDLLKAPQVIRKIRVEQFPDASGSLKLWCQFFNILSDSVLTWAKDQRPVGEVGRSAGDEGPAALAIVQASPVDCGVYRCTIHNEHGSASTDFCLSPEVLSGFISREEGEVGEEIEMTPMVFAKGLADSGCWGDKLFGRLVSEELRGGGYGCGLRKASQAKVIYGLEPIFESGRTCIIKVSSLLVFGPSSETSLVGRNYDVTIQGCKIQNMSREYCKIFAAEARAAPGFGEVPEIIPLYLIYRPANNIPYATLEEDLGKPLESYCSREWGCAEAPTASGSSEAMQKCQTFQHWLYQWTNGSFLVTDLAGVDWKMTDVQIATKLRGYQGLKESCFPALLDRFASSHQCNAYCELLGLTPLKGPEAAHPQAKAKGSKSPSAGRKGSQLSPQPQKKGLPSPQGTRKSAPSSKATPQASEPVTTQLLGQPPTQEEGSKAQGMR
UniProt P52179: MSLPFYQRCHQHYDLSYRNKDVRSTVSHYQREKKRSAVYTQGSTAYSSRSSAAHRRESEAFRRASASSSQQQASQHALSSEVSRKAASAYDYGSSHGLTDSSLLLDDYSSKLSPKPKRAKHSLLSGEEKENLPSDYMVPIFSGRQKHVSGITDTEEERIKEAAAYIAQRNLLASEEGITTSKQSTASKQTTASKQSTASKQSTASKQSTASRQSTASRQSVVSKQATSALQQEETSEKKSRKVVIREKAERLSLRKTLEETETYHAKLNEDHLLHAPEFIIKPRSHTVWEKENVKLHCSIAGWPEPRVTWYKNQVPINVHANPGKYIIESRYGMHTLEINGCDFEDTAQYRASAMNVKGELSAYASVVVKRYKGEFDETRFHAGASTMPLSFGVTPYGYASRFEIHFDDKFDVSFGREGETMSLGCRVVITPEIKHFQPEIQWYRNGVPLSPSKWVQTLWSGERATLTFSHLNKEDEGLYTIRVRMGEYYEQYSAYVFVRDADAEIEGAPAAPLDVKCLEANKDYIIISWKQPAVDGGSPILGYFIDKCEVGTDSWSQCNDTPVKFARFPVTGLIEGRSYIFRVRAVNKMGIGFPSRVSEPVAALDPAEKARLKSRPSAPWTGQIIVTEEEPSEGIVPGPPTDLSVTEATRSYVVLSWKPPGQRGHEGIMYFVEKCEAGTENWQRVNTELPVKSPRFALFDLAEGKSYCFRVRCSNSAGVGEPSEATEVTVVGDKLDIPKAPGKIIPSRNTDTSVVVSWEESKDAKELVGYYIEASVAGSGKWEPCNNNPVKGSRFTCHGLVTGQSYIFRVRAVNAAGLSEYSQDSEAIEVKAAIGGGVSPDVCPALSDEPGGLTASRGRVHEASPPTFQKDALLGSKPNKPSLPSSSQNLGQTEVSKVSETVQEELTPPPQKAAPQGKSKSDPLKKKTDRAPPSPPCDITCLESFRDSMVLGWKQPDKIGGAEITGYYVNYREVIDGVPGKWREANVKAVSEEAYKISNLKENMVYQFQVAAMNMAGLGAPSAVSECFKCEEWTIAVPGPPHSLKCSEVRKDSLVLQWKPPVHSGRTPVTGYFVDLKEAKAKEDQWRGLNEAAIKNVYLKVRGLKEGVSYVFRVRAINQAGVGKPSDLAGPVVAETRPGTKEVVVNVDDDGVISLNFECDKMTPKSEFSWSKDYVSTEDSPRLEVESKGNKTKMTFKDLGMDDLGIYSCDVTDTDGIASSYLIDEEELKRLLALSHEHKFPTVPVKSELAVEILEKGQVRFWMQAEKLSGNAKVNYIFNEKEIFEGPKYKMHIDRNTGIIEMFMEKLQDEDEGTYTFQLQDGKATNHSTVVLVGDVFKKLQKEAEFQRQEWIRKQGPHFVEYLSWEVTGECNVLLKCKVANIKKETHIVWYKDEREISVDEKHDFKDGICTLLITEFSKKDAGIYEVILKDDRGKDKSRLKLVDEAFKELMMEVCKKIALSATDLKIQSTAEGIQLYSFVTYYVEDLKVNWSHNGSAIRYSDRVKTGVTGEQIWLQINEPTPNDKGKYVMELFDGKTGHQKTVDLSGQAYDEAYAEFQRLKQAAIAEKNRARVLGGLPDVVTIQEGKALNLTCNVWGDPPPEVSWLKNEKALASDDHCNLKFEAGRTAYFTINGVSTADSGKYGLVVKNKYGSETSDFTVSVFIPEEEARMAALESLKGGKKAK

Data on 2 molecules can be found in article PMC9698156.

The target of assay [1] is human ALPK3-FLAG (human) (UniProt Q96L96). Description: co-IP; HEK293T cells transfected with the tagged proteins; FLAG-IP with anti-FLAG M2 magnetic beads, eluted with SDS-PAGE sample buffer, Western blot (anti-FLAG, anti-HA). (In western blotting, separated proteins are transferred to a membrane and probed.)
Assay [2] shares this target. Described as above. This is another data set of the same source.

With MYOM1-HA (from UniProt P52179 1-1685), in the assay with human ALPK3-FLAG (human) [1], the binding entry is on record as “no binding”.

B1: MYOM2-HA (protein, UniProt P54296 1-1465)
chain: MSLVTVPFYQKRHRHFDQSYRNIQTRYLLDEYASKKRASTQASSQKSLSQRSSSQRASSQTSLGGTICRVCAKRVSTQEDEEQENRSRYQSLVAAYGEAKRQRFLSELAHLEEDVHLARSQARDKLDKYAIQQMMEDKLAWERHTFEERISRAPEILVRLRSHTVWERMSVKLCFTVQGFPTPVVQWYKDGSLICQAAEPGKYRIESNYGVHTLEINRADFDDTATYSAVATNAHGQVSTNAAVVVRRFRGDEEPFRSVGLPIGLPLSSMIPYTHFDVQFLEKFGVTFRREGETVTLKCTMLVTPDLKRVQPRAEWYRDDVLLKESKWTKMFFGEGQASLSFSHLHKDDEGLYTLRIVSRGGVSDHSAFLFVRDADPLVTGAPGAPMDLQCHDANRDYVIVTWKPPNTTTESPVMGYFVDRCEVGTNNWVQCNDAPVKICKYPVTGLFEGRSYIFRVRAVNSAGISRPSRVSDAVAALDPLDLRRLQAVHLEGEKEIAIYQDDLEGDAQVPGPPTGVHASEISRNYVVLSWEPPTPRGKDPLMYFIEKSVVGSGSWQRVNAQTAVRSPRYAVFDLMEGKSYVFRVLSANRHGLSEPSEITSPIQAQDVTVVPSAPGRVLASRNTKTSVVVQWDRPKHEEDLLGYYVDCCVAGTNLWEPCNHKPIGYNRFVVHGLTTGEQYIFRVKAVNAVGMSENSQESDVIKVQAALTVPSHPYGITLLNCDGHSMTLGWKVPKFSGGSPILGYYLDKREVHHKNWHEVNSSPSKPTILTVDGLTEGSLYEFKIAAVNLAGIGEPSDPSEHFKCEAWTMPEPGPAYDLTFCEVRDTSLVMLWKAPVYSGSSPVSGYFVDFREEDAGEWITVNQTTTASRYLKVSDLQQGKTYVFRVRAVNANGVGKPSDTSEPVLVEARPGTKEISAGVDEQGNIYLGFDCQEMTDASQFTWCKSYEEISDDERFKIETVGDHSKLYLKNPDKEDLGTYSVSVSDTDGVSSSFVLDPEELERLMALSNEIKNPTIPLKSELAYEIFDKGRVRFWLQAEHLSPDASYRFIINDREVSDSEIHRIKCDKATGIIEMVMDRFSIENEGTYTVQIHDGKAKSQSSLVLIGDAFKTVLEEAEFQRKEFLRKQGPHFAEYLHWDVTEECEVRLVCKVANTKKETVFKWLKDDVLYETETLPNLERGICELLIPKLSKKDHGEYKATLKDDRGQDVSILEIAGKVYDDMILAMSRVCGKSASPLKVLCTPEGIRLQCFMKYFTDEMKVNWCHKDAKISSSEHMRIGGSEEMAWLQICEPTEKDKGKYTFEIFDGKDNHQRSLDLSGQAFDEAFAEFQQFKAAAFAEKNRGRLIGGLPDVVTIMEGKTLNLTCTVFGNPDPEVIWFKNDQDIQLSEHFSVKVEQAKYVSMTIKGVTSEDSGKYSINIKNKYGGEKIDVTVSVYKHGEKIPDMAPPQQAKPKLIPASASAAGQ
With B1, the binding result with human ALPK3-FLAG (human) [2] is “binds”.
